Measured values: the supplement of paper PMC10849652
The list shows a part of the results.

By UniProt entry, the sequences of proteins in these tests, tags left out. Where a name states a change or a piece, a line headed by the entry shows the natural chain unless it says otherwise.
UniProt P28072: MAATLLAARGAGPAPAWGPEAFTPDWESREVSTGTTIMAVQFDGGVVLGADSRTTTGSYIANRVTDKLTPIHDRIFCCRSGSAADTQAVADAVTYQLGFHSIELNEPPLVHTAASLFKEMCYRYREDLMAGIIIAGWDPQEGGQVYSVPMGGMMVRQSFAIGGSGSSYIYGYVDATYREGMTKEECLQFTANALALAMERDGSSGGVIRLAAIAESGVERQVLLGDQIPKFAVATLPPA
UniProt Q14289, whole entry, looked up: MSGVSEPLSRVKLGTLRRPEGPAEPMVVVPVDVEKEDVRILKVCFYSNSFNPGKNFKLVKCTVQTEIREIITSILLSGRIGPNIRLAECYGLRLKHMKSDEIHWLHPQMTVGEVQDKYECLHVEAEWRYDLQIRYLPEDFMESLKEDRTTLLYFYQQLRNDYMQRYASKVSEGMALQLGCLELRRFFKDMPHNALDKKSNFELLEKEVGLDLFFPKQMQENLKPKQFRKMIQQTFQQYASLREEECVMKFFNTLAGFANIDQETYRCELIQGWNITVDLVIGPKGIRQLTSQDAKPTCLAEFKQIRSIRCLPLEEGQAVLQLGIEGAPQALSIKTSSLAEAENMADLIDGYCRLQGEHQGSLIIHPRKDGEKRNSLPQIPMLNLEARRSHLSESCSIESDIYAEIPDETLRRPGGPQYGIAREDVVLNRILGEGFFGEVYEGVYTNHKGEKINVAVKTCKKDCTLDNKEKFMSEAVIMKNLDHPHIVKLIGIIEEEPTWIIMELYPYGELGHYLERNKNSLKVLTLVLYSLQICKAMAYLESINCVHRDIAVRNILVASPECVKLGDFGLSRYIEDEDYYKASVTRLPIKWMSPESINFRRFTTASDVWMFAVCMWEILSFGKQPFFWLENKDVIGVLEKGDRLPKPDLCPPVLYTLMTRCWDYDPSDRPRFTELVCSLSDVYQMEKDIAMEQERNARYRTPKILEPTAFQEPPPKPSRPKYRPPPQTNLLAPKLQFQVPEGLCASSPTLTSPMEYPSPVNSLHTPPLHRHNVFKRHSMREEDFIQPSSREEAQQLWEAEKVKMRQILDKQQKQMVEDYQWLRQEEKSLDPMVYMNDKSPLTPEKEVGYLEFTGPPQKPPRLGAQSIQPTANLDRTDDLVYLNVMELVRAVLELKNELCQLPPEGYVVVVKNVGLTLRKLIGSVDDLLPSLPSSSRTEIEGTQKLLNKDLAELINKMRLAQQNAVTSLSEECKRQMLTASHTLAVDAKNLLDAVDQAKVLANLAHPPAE
UniProt Q9H939: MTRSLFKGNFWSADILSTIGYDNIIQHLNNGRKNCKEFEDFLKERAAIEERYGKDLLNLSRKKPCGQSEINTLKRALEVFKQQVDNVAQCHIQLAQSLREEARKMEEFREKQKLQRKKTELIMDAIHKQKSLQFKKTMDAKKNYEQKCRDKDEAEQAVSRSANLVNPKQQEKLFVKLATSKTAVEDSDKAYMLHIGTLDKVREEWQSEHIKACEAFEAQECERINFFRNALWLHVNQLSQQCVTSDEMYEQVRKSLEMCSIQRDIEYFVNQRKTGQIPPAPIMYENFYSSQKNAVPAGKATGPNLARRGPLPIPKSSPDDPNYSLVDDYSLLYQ
UniProt Q9Y6M0: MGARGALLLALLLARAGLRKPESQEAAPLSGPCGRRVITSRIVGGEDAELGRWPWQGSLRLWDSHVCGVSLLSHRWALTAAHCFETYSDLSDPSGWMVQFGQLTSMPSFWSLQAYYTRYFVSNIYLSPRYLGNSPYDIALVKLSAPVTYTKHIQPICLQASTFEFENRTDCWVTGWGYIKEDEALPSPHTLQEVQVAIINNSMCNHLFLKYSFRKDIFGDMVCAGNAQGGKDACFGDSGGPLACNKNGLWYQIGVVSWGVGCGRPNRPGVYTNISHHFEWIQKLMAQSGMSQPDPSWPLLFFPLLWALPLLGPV
UniProt Q9BVG9: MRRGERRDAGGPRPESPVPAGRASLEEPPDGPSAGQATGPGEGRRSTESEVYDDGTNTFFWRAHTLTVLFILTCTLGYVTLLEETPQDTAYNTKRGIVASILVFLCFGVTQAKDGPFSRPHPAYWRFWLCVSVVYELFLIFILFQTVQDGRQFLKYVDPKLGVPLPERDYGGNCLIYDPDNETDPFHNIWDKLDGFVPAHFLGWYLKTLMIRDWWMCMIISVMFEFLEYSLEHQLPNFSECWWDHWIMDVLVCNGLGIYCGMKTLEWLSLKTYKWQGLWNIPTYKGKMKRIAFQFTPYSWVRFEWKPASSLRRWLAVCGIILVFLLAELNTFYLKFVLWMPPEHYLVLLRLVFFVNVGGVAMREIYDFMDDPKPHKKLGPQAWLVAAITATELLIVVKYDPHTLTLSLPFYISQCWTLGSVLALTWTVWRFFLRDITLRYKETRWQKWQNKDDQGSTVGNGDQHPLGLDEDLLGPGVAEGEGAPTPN
UniProt O75832: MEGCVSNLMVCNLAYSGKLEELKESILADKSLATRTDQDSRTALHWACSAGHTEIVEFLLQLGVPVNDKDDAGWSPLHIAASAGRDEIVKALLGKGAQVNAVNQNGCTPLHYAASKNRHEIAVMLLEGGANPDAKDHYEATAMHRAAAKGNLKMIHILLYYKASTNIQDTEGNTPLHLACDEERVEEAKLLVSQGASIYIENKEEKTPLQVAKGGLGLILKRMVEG
UniProt Q9H7Z7: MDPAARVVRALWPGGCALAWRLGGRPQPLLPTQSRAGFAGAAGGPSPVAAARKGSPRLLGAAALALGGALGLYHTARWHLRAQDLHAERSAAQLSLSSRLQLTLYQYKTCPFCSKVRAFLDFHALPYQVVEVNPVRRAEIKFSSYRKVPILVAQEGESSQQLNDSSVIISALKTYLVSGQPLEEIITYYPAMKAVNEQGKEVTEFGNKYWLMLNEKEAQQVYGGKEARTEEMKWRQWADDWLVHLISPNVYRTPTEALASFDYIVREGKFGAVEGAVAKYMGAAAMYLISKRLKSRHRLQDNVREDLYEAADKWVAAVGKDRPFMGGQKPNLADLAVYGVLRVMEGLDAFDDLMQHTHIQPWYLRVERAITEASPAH
UniProt P49721: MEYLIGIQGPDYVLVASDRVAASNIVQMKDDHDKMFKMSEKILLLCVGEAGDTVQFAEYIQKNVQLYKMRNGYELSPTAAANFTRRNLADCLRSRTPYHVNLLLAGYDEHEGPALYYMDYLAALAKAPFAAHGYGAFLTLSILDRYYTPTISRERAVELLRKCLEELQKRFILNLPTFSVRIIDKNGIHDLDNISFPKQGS
UniProt Q9NXS2: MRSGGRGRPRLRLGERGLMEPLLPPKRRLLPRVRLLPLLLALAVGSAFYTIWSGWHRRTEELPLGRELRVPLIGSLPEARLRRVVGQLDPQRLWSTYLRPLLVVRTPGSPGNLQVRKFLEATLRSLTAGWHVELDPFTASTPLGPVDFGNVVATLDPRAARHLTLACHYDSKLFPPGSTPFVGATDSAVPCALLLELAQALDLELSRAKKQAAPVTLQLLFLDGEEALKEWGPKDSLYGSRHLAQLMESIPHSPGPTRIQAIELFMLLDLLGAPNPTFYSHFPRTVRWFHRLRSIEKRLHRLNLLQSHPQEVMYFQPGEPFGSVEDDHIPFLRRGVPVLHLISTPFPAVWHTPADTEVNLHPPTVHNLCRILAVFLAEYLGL
UniProt P51665: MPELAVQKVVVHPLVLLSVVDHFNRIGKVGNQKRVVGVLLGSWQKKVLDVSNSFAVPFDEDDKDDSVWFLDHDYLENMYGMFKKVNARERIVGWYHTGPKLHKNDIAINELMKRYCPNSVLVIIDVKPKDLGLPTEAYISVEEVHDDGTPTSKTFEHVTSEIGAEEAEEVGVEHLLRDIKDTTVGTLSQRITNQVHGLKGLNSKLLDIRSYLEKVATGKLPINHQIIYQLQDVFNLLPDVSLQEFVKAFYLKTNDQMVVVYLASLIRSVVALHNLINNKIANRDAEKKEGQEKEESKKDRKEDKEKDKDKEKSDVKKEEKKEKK
UniProt Q9H0K6: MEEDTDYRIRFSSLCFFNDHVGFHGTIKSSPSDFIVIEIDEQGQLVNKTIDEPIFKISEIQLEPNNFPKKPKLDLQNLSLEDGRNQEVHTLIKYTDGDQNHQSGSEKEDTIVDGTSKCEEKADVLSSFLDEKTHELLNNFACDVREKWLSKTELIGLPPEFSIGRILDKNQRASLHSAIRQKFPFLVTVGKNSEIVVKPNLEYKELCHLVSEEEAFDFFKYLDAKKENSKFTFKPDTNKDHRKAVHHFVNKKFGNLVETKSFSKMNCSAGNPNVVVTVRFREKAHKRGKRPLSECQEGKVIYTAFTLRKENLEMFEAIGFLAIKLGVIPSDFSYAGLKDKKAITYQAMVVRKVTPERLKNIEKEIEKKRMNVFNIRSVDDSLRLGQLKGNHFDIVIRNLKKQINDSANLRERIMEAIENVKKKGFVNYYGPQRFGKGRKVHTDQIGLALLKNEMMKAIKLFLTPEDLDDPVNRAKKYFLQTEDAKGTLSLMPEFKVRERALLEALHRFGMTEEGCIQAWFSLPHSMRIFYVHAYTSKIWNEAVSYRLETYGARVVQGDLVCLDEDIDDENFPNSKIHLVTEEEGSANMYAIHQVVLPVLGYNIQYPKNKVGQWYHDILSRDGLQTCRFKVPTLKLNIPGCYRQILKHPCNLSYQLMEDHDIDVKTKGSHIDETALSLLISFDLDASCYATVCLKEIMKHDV
UniProt P55036: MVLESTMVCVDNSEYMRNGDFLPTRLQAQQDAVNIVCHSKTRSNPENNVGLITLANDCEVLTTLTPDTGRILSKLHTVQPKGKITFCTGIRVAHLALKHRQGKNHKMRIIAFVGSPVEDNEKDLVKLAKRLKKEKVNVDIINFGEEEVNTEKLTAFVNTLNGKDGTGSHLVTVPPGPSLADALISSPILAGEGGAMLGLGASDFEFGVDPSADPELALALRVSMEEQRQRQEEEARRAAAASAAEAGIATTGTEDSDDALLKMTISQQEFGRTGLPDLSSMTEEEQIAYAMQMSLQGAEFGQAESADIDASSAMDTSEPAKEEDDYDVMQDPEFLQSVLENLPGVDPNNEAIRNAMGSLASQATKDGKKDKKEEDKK
UniProt Q9ULZ3, whole entry, looked up: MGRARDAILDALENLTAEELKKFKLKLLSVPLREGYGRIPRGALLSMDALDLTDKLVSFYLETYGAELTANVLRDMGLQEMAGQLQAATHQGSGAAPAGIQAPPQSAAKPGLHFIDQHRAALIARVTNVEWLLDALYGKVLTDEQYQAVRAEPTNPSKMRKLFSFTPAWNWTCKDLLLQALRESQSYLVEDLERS
UniProt Q6ZRP7: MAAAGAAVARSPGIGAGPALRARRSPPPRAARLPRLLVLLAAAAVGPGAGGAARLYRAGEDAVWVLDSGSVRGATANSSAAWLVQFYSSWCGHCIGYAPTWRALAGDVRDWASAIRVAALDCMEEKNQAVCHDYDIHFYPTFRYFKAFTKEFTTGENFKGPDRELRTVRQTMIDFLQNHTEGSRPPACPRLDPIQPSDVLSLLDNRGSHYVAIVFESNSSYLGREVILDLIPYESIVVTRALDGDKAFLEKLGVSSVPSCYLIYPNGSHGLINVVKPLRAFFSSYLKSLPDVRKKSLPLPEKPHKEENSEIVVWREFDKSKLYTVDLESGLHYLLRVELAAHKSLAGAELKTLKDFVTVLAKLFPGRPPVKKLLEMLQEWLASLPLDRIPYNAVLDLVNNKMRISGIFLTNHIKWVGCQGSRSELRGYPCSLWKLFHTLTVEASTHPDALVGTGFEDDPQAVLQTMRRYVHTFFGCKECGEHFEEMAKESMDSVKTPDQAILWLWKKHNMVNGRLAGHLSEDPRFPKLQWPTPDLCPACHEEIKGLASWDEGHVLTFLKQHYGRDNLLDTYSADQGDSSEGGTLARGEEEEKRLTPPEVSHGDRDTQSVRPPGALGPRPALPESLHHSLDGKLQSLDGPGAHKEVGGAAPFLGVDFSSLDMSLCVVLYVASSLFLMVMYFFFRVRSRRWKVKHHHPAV
UniProt P28070, whole entry, looked up: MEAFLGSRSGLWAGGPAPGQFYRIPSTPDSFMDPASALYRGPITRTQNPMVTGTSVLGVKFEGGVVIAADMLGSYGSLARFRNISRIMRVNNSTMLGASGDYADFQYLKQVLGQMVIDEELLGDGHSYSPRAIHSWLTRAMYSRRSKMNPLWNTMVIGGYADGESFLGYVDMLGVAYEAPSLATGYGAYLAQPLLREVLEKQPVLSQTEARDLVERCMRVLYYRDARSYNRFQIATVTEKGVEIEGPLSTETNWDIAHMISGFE
UniProt Q9BT73: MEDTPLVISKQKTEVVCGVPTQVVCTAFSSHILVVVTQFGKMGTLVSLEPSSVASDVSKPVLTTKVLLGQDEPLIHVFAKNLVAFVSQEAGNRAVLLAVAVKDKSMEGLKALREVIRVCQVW
UniProt P48556: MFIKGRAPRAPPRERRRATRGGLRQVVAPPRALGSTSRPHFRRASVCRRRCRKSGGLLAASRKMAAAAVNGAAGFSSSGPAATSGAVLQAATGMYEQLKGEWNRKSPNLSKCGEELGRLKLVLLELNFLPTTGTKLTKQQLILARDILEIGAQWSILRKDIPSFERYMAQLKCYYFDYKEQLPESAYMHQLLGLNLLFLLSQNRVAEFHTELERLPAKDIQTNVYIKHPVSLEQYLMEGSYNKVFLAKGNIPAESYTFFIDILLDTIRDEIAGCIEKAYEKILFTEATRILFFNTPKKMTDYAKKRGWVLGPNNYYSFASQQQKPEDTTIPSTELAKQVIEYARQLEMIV

Tests used:
Assay in all cases: log2 fold change, soluble protein after heating vs DMSO (PISA); higher = thermal stabilisation; K562 cells, 10 uM, 30 min; active = over 0.2 and 3.5 SD of the protein, either way, in both replicates (recomputed)
[1] = compound: C1=CC=C(C=C1)[C@H](COC2=CC3=C(C=C2)NC(=O)N3)NC(=O)C4=CC=CN(C4=O)CC5=CC(=C(C=C5)F)F
Procedure, shortened: (§1)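 K562 cells at 2×10^6 cells/mL were exposed to 10 μM compound for 30 min, then aliquots were heated for 3 min across 48°C-58°C, pooled, and extracted in PBS containing 0.5% NP-40 at 4°C. The supernatant after 21,000xg for 90 min was taken as soluble protein and measured by TMTpro 16plex LC-MS/MS with channel sums equalised. Thermal stability is reported relative to control samples, with values from duplicates. Fold changes are given on a log2 scale.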

[2] = compound: CC1=C(SC2=C1C(=N[C@H](C3=NN=C(N32)C)CC(=O)N)C4=CC=C(C=C4)Cl)C
Procedure, shortened: as §1

[3] = compound: CC1=C2C(=CC=C1)N=C(N(C2=O)C3=CC=CC=C3C)CN4C=NC5=C(N=CN=C54)N
Procedure, shortened: as §1

[4] = compound: Cc1sc2c(c1C)C(c1ccc(Cl)cc1)=N[C@@H](CC(=O)OC(C)(C)C)c1nnc(C)n1-2
Procedure, shortened: as §1

[5] = compound: c1ccc([C@@H]2C[C@H]2NC2CCNCC2)cc1
Procedure, shortened: as §1

Measured: log2 fold change

PSMA8 (UniProt Q8TAA3)
inactive: [1] 0.089 | [2] 0.014 | [3] 0.004 | [4] 0.025 | [5] -0.023

PXMP2 (UniProt Q9NR77)
inactive: [1] 0.042 | [2] 0.04 | [3] 0.066 | [4] -0.007 | [5] 0.017

PTPN23 (UniProt Q9H3S7)
inactive: [1] -0.038 | [2] 0.048 | [3] 0.054 | [4] 0 | [5] 0.038

PSMB6 (UniProt P28072)
inactive: [1] 0.023 | [2] -0.057 | [3] -0.015 | [4] 0.019 | [5] 0.081

PTK2B (UniProt Q14289)
inactive: [1] -0.105 | [2] -0.098 | [3] 0.194 | [4] 0 | [5] -0.013

QARS (UniProt P47897)
inactive: [1] 0.116 | [2] -0.231 | [3] -0.035 | [4] 0.315 | [5] 0.024

PSTPIP2 (UniProt Q9H939)
inactive: [1] -0.059 | [2] -0.008 | [3] 0.07 | [4] 0.002 | [5] 0.025

PRSS21 (UniProt Q9Y6M0)
inactive: [1] 0.143 | [2] 0.043 | [3] 0.002 | [4] -0.006 | [5] -0.091

PSMD2 (UniProt Q13200)
inactive: [1] 0.026 | [2] -0.097 | [3] -0.059 | [4] 0.008 | [5] 0.016

PSMC5 (UniProt P62195)
inactive: [1] 0.017 | [2] -0.087 | [3] -0.045 | [4] 0.006 | [5] 0.01

PUM1 isoform 3 (UniProt Q14671)
inactive: [1] 0.004 | [2] -0.036 | [3] 0.056 | [4] 0.025 | [5] -0.049

PTGS1 isoform 6 (UniProt P23219)
inactive: [1] -0.022 | [2] 0.021 | [3] 0.065 | [4] -0.022 | [5] 0.026

PUS7 isoform 2 (UniProt Q96PZ0)
inactive: [1] 0.007 | [2] -0.011 | [3] -0.026 | [4] 0.013 | [5] 0.024

QPRT (UniProt Q15274)
inactive: [1] -0.022 | [2] 0.002 | [3] 0.013 | [4] -0.029 | [5] -0.013

PSMG4 isoform 2 (UniProt Q5JS54)
inactive: [1] 0.048 | [2] -0.196 | [3] -0.087 | [4] -0.107 | [5] 0.118

PTAR1 (UniProt Q7Z6K3)
inactive: [1] 0.035 | [2] 0.034 | [3] 0.015 | [4] 0.005 | [5] -0.014

PTDSS2 (UniProt Q9BVG9)
inactive: [1] -0.042 | [2] 0.055 | [3] 0.067 | [4] -0.078 | [5] -0.019

PZP (UniProt P20742)
inactive: [1] -0.008 | [2] -0.046 | [3] 0.103 | [4] 0.078 | [5] 0.149

PYURF (UniProt Q96I23)
inactive: [1] -0.094 | [2] 0.025 | [3] 0.084 | [4] -0.064 | [5] 0.105

PTK2 (UniProt Q05397)
inactive: [1] 0.041 | [2] 0.034 | [3] 0.016 | [4] -0.008 | [5] 0

PSMD10 (UniProt O75832)
inactive: [1] -0.019 | [2] 0.028 | [3] 0.121 | [4] -0.063 | [5] -0.067

PUS3 (UniProt Q9BZE2)
inactive: [1] -0.072 | [2] 0.107 | [3] 0.088 | [4] -0.005 | [5] -0.056

PSMA6 (UniProt P60900)
inactive: [1] 0.045 | [2] -0.069 | [3] -0.028 | [4] -0.011 | [5] 0.029

PTPA (UniProt Q15257)
inactive: [1] -0.013 | [2] 0.021 | [3] 0.005 | [4] -0.041 | [5] -0.003

PTGES2 (UniProt Q9H7Z7)
inactive: [1] 0.028 | [2] -0.026 | [3] 0.03 | [4] 0.001 | [5] 0.092

PSMB2 (UniProt P49721)
inactive: [1] 0.029 | [2] 0.006 | [3] 0.016 | [4] -0.068 | [5] 0.015

PSMD3 (UniProt O43242)
inactive: [1] 0.028 | [2] -0.055 | [3] -0.006 | [4] -0.023 | [5] -0.011

PTMA (UniProt P06454)
inactive: [1] 0.029 | [2] 0.017 | [3] -0.105 | [4] -0.166 | [5] -0.009

QTRT2 isoform 4 (UniProt Q9H974)
inactive: [1] 0.022 | [2] 0.007 | [3] 0.059 | [4] -0.01 | [5] 0.004

QPCTL (UniProt Q9NXS2)
inactive: [1] 0.053 | [2] -0.001 | [3] 0.008 | [4] 0.016 | [5] -0.02

PSMD7 (UniProt P51665)
inactive: [1] 0.033 | [2] -0.102 | [3] -0.024 | [4] 0.034 | [5] 0

PTPN2 (UniProt P17706)
inactive: [1] -0.094 | [2] 0.037 | [3] 0.116 | [4] 0.002 | [5] 0.034

PUS7L (UniProt Q9H0K6)
inactive: [1] -0.05 | [2] 0.03 | [3] 0.013 | [4] 0.005 | [5] 0.032

PSMD4 (UniProt P55036)
inactive: [1] 0.025 | [2] -0.058 | [3] -0.096 | [4] 0.007 | [5] -0.005

PYCARD (UniProt Q9ULZ3)
inactive: [1] -0.05 | [2] 0.072 | [3] 0.076 | [4] -0.053 | [5] -0.022

PSAP isoform 3 (UniProt P07602)
inactive: [1] -0.037 | [2] 0.024 | [3] -0.019 | [4] 0.006 | [5] -0.016

PTGES3 (UniProt Q15185)
inactive: [1] -0.009 | [2] 0.016 | [3] 0.067 | [4] -0.046 | [5] -0.063

PXK (UniProt Q7Z7A4)
inactive: [1] -0.015 | [2] 0.04 | [3] 0.098 | [4] 0.011 | [5] -0.045

Taken from above (ten entries):
PSMC5 (UniProt P62195)
inactive: [1] 0.017 | [2] -0.087 | [3] -0.045 | [4] 0.006 | [5] 0.01

PUM1 isoform 3 (UniProt Q14671)
inactive: [1] 0.004 | [2] -0.036 | [3] 0.056 | [4] 0.025 | [5] -0.049

PTGS1 isoform 6 (UniProt P23219)
inactive: [1] -0.022 | [2] 0.021 | [3] 0.065 | [4] -0.022 | [5] 0.026

PUS7 isoform 2 (UniProt Q96PZ0)
inactive: [1] 0.007 | [2] -0.011 | [3] -0.026 | [4] 0.013 | [5] 0.024

QPRT (UniProt Q15274)
inactive: [1] -0.022 | [2] 0.002 | [3] 0.013 | [4] -0.029 | [5] -0.013

PSMG4 isoform 2 (UniProt Q5JS54)
inactive: [1] 0.048 | [2] -0.196 | [3] -0.087 | [4] -0.107 | [5] 0.118

PTAR1 (UniProt Q7Z6K3)
inactive: [1] 0.035 | [2] 0.034 | [3] 0.015 | [4] 0.005 | [5] -0.014

PTDSS2 (UniProt Q9BVG9)
inactive: [1] -0.042 | [2] 0.055 | [3] 0.067 | [4] -0.078 | [5] -0.019

PZP (UniProt P20742)
inactive: [1] -0.008 | [2] -0.046 | [3] 0.103 | [4] 0.078 | [5] 0.149

PYURF (UniProt Q96I23)
inactive: [1] -0.094 | [2] 0.025 | [3] 0.084 | [4] -0.064 | [5] 0.105

(next part)

PTP4A2 (UniProt Q12974)
inactive: [1] -0.021 | [2] 0.028 | [3] 0.056 | [4] 0.052 | [5] -0.029

QSOX2 (UniProt Q6ZRP7)
inactive: [1] 0.026 | [2] 0.04 | [3] 0.054 | [4] -0.007 | [5] -0.016

PTRH2 (UniProt Q9Y3E5)
inactive: [1] 0.018 | [2] 0.068 | [3] 0.019 | [4] -0.106 | [5] -0.02

PSMB4 (UniProt P28070)
inactive: [1] 0.024 | [2] -0.037 | [3] -0.038 | [4] -0.009 | [5] 0.03

PTP4A1 (UniProt Q93096)
inactive: [1] -0.002 | [2] 0.109 | [3] 0.037 | [4] 0.001 | [5] -0.031

PTDSS1 (UniProt P48651)
inactive: [1] -0.027 | [2] -0.072 | [3] -0.115 | [4] 0.042 | [5] 0.017

PSAT1 (UniProt Q9Y617)
inactive: [1] 0.008 | [2] 0.016 | [3] -0.018 | [4] -0.005 | [5] 0.037

QRSL1 (UniProt Q9H0R6)
inactive: [1] -0.01 | [2] 0.142 | [3] 0.147 | [4] 0.05 | [5] 0.041

PSMG3 (UniProt Q9BT73)
inactive: [1] 0.02 | [2] 0.079 | [3] -0.057 | [4] -0.102 | [5] 0.067

PSMD9 (UniProt O00233)
inactive: [1] 0.014 | [2] 0.017 | [3] -0.004 | [4] 0.007 | [5] 0.016

QSOX1 (UniProt O00391)
inactive: [1] 0.005 | [2] 0.171 | [3] -0.028 | [4] 0.018 | [5] -0.014

PTRHD1 (UniProt Q6GMV3)
inactive: [1] -0.002 | [2] 0.056 | [3] 0.046 | [4] -0.073 | [5] 0.033

PSEN1 (UniProt P49768)
inactive: [1] -0.101 | [2] 0.122 | [3] 0.081 | [4] -0.078 | [5] -0.055

PSMD8 (UniProt P48556)
inactive: [1] 0.014 | [2] -0.07 | [3] -0.01 | [4] -0.001 | [5] 0.071

PSME3 isoform 2 (UniProt P61289)
inactive: [1] 0.019 | [2] 0 | [3] -0.04 | [4] 0.017 | [5] 0.045
